# Test results from patent US9248145B2, “Two alkylresorcinol synthase genes from sorghum; cloning, expression, transformation and characterization” (The United States of America, as represented by The …, priority 2010, dated 2016).
# By UniProt entry, the sequences of proteins in these tests, tags left out.
# UniProt C5YRS1, entry or part of it: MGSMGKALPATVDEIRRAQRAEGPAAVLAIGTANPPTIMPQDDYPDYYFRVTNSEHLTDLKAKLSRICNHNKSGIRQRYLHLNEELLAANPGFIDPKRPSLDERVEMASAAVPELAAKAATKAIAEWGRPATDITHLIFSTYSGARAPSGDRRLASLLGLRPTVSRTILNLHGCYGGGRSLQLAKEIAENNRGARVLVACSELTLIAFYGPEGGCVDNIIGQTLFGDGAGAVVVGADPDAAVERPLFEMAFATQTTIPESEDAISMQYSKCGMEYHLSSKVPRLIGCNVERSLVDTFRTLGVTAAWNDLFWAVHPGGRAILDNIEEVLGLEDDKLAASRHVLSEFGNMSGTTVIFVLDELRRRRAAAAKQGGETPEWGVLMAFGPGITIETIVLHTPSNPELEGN
# UniProt C5Y4Z2, entry or part of it: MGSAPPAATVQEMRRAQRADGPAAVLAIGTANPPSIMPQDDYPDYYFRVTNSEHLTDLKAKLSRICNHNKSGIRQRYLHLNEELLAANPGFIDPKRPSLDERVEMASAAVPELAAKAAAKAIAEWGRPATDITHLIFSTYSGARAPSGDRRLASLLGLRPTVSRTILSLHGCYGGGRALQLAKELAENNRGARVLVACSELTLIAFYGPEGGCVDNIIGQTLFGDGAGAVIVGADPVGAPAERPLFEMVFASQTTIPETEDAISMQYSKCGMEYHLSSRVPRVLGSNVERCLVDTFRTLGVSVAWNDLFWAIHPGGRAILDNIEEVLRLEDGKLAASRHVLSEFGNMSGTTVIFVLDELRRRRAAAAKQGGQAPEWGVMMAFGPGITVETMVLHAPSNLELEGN
# For part of these data: At least one read-out could not be matched to a standard name with certainty. Some of these results come from one statement about several compounds together. Some compounds share one range, which may span the group rather than tell each member.
# What was measured:
# Format in all cases: biochemical
# recombinant ARS2 [1] = molecular target: T1, recombinant ARS2 (Sorghum bicolor, UniProt C5YRS1); assay: Steady-state kinetics with [2-14C]-malonyl-CoA, TLC/phosphor imaging
# Description: (§1) Enzyme assays, performed in triplicate, for starter unit CoA kinetics contained 100 mM potassium phosphate buffer (pH 7.0), 40 μM [2-^14C]-malonyl-CoA (50-60 mCi/mmol, 1.85-2.22 GBq/mmol; American Radiolabeled Chemicals, Inc., St. Louis, Mo.), 1.43-10 μM starter unit (e.g., palmitoyl-CoA), and 0.75 μg protein in a 200 μL volume at 30° C. for 5 min. Enzyme assays for malonyl-CoA kinetics contained 100 mM potassium phosphate buffer (pH 7.0), 1.66-25 μM [2-^14C]-malonyl-CoA, 25 μM starter unit (palmitoleoyl-CoA), and 0.75 μg protein in a 200 μL volume at 30° C. for 5 min. Reactions were quenched by addition of 10 μL of 20% HCl. The products were extracted as described above, and were separated by thin layer chromatography (silica gel 60 F254; chloroform:ethyl acetate=70:30; 15 min). Product detection and formation was quantified through the use of the Cyclone storage phosphor system and OptiQuant 3.0 image analysis software (PerkinElmer, Wellesley, Mass.). Data were fit to the Michaelis-Menten equation using the Sigma Plot 9.01 enzyme kinetics module (Systat, Inc., San Jose, Calif.).
# recombinant ARS1 [2] = molecular target: T2, recombinant ARS1 (Sorghum bicolor, UniProt C5Y4Z2); assay: as above
# Description: as §1
# recombinant ARS2 [3] = molecular target: T1, recombinant ARS2; assay: Polyketide synthase enzyme assay, 5-alkylresorcinol formation (GC-MS, m/z 268)
# Description: (§2) Reactions were quenched by addition of 10 μL of 20% HCl, and products were extracted by phase partitioning with 1 ml of ethyl acetate. The organic phase (upper layer) obtained by centrifugation at ˜14,000×g for 1 min was transferred to a fresh tube, dried under vacuum, and subsequently analyzed by GC-EI-MS as a trimethysilyl (TMS) derivative.
# (§3) Reactions were quenched by addition of 10 μL of 20% HCl. The products were extracted as described above, and were separated by thin layer chromatography (silica gel 60 F254; chloroform:ethyl acetate=70:30; 15 min). Product detection and formation was quantified through the use of the Cyclone storage phosphor system and OptiQuant 3.0 image analysis software (PerkinElmer, Wellesley, Mass.).
# (§4) Recombinant enzyme studies were next performed to examine substrate preferences for the 3 putative type III PKS enzymes maximally expressed in root hairs. […] Acyl-CoAs varying in length and degree of saturation were tested in enzymatic assays with all three recombinant enzymes, as well as the non-linear starter units benzoyl-CoA, isovaleryl-CoA, and isobutryl-CoA used by several other plant type III PKS enzymes (Austin and Noel, supra).
# recombinant ARS1 [4] = molecular target: T2, recombinant ARS1; assay: as above
# Description: as §2, §3, §4
Structure (SMILES),kcat/Km (recombinant ARS2 [1]) [M⁻¹ s⁻¹],kcat/Km (recombinant ARS1 [2]) [M⁻¹ s⁻¹],"triketide pyrone derailment product, share of the total moles product derived from the starter (recombinant ARS2 [3])","triketide pyrone derailment product, share of the total moles product derived from the starter (recombinant ARS1 [4])"
"CCCCCCCCCCCCCCCC(=O)SCCNC(=O)CCNC(=O)[C@H](O)C(C)(C)COP(=O)(O)OP(=O)(O)OC[C@H]1O[C@@H](n2cnc3c(N)ncnc32)[C@H](O)[C@@H]1OP(=O)(O)O [C16:0-CoA, palmitoyl-CoA]",4520,5656,,
"CCCCCC/C=C\CCCCCCCC(=O)SCCNC(=O)CCNC(=O)[C@H](O)C(C)(C)COP(=O)(O)OP(=O)(O)OC[C@H]1O[C@@H](n2cnc3c(N)ncnc32)[C@H](O)[C@@H]1OP(=O)(O)O [C16:1-CoA, palmitoleoyl-CoA]",6201,7680,,
CCCCCC(=O)SCCNC(=O)CCNC(=O)[C@H](O)C(C)(C)COP(=O)(O)OP(=O)(O)OC[C@H]1O[C@@H](n2cnc3c(N)ncnc32)[C@H](O)[C@@H]1OP(=O)(O)O [caproyl-CoA],,,19-24%,20-22%
CCCCCCCC(=O)SCCNC(=O)CCNC(=O)[C@H](O)C(C)(C)COP(=O)(O)OP(=O)(O)OC[C@H]1O[C@@H](n2cnc3c(N)ncnc32)[C@H](O)[C@@H]1OP(=O)(O)O [capryloyl-CoA],,,19-24%,
CCCCCCCCCCCC(=O)SCCNC(=O)CCNC(=O)[C@H](O)C(C)(C)COP(=O)(O)OP(=O)(O)OC[C@H]1O[C@@H](n2cnc3c(N)ncnc32)[C@H](O)[C@@H]1OP(=O)(O)O [lauroyl-CoA],,,19-24%,20-22%
